# From patent publication US5959109A, “Compounds and methods for increasing endogenous levels of corticotropin-releasing factor” (Neurocrine Biosciences, Inc., priority 1996, dated 1999)
# Some entries share one result that the patent states for a list of compounds.
# Biological target: T1, human recombinant CRF-BP (Homo sapiens, UniProt P24387)
# T1 construct: made in house
# T1 sequence (P24387 25-322): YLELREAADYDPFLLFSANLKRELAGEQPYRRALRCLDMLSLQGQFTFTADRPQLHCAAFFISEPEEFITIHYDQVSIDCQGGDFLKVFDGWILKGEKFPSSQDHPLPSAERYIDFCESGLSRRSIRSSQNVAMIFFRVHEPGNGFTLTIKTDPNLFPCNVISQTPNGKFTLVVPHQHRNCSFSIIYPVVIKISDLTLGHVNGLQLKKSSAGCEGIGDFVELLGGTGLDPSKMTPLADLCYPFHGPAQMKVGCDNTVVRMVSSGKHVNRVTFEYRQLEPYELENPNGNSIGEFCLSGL
# Test: LIRMA: displacement of 125I-h/rCRF from CRF-BP, Ki
# Settings: read-out: inhibitory binding affinity constant (Ki)
# Experimental: In LIRMA CRF-BP isolated from brain tissue, serum, or cells expressing a recombinant form, is added to wells of a 96-well plate, to small polypropylene microfuge tubes, or to glass borosilicate tubes in a binding buffer (0.02% NP-40 in 50 mM phosphate-buffered saline). ^125 I-h/rCRF (New England Nuclear) and the candidate ligand inhibitor at 10 μM are added and the reaction is incubated for 1 hour at room temperature. An appropriately diluted anti-CRF-BP antibody, such as a rabbit anti-hCRF-BP (Potter et al., Proc. Natl. Acad. Sci. USA 89:4192-4196, 1992) is added to each tube, and after further incubation, bound complexes are precipitated by the further addition of a goat anti-rabbit antibody. The precipitate containing ^125 I-CRF is collected by centrifugation and the amount of radioactivity in the pellet is determined by a gamma counter. If the candidate ligand inhibitor displaces CRF from CRF-BP, the pellets will contain less radioactivity in comparison to controls in which no candidate peptide is added. Maximum inhibition (i.e., 100%) of the binding of ^125 I-h/rCRF to the CRF-BP is defined by the amount of radioactivity left in the pellets after incubation with 10 μM of the CRF-BP peptide ligand h/rCRF (6-33). Thus, the binding potency of the candidate ligand inhibitor will be measured relative to the potency of the standard h/rCRF (6-33).
# Thus, a ligand having a Ki of less than that of hCRF will bind more strongly to hCRF-BP than will hCRF itself, and a ligand having a higher value will have a relatively lower binding affinity.
# The assay is performed in 600 μl polypropylene microfuge tubes or a 96-well plate. First, 50 μl of a 250 ng/ml of purified recombinant CRF-BP is added to 150 μl of PBS binding buffer (50 mM sodium phosphate, 0.15M NaCl, and 0.02% NP-40). Next, ^125 I-h/r CRF at a final concentration of 200 pM and 50 μl of a 10-100 μM concentration of the ligand inhibitor are added and incubated for 1 hour at room temperature. To the reaction, 50 μl of anti-CRF-BP antibody, 5144, diluted 1:1000 with assay buffer is added to each tube and allowed to bind for a further 1 hour at room temperature. The total volume in all tubes is adjusted to 300 μl with assay buffer. Bound complexes are precipitated by the addition of 200 μl of preprecipitated goat anti-rabbit (GAR) second antibody at 1:20 in 1% normal rabbit serum, 4% PEG, 50 mM sodium phosphate, 0.1% sodium azide, followed by incubation for 1 hour at room temperature. The antibody-bound ^125 I-CRF precipitate is then collected by centrifugation (3000×g) at 4° C. for 20 minutes in a Beckman GS-15R centrifuge. Using a Beckman Biomer 1000 robotic workstation, the tubes are aspirated and washed once with 600 μl of PBS plus 0.02% NP-40. Tubes containing the pellets are then transferred to 12×74 mm counting tubes and counted in a gamma counter.
# Inhibitory binding affinity constant (Ki) values are determined using the method of Munson et al., Anal. Biochem. 107:220, 1980.
row,SMILES,Ki
1,CCn1c(O)c(C=Nc2nc3c(C)cccc3[nH]2)c(=O)n(CC)c1=S [Compound 87],< 100 nM
2,O=c1c(C=Nc2nc(N(Cc3ccccc3)c3ccccc3)ns2)c(O)n(Cc2ccccc2)c(=S)n1Cc1ccccc1 [Compound 132],< 100 nM
3,O=c1c(C=Nc2nc3c(Cl)cccc3s2)c(O)n(CCc2ccccc2)c(=S)n1CCc1ccccc1 [Compound 95],< 100 nM
4,O=c1c(C=Nc2nc3ccccc3[nH]2)c(O)n(Cc2ccccc2)c(=S)n1Cc1ccccc1 [Compound 66],< 100 nM
5,Cc1cnc(N=Cc2c(O)n(Cc3ccco3)c(=S)n(Cc3ccco3)c2=O)s1 [Compound 156],< 100 nM
6,O=c1c(C=Nc2nc3c(Cl)cccc3s2)c(O)n(Cc2ccccc2)c(=S)n1Cc1ccccc1 [Compound 67],< 100 nM
7,O=c1c(C=Nc2nnc(O)s2)c(O)n(Cc2ccccc2)c(=S)n1Cc1ccccc1 [Compound 134],< 100 nM
8,Cc1cnc(N=Cc2c(O)n(Cc3cccs3)c(=S)n(Cc3cccs3)c2=O)s1 [Compound 157],< 100 nM
9,CCCn1c(O)c(C=Nc2nc(N(Cc3ccccc3)c3ccccc3)ns2)c(=O)n(CCC)c1=S [Compound 133],< 100 nM
10,CCCn1c(O)c(C=Nc2nc3ccccc3[nH]2)c(=O)n(CCC)c1=S [Compound 68],< 100 nM
